From the supplement of paper PMC10849652
The list shows a part of the results.

By UniProt entry, the sequences of proteins in these tests, tags left out. Where a name states a change or a piece, a line headed by the entry shows the natural chain unless it says otherwise.
UniProt Q9Y5R8, whole entry, looked up: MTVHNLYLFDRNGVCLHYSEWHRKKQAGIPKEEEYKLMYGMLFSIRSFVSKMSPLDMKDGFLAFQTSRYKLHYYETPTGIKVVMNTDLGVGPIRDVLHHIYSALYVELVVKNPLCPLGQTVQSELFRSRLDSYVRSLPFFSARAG
UniProt P06753, whole entry, looked up: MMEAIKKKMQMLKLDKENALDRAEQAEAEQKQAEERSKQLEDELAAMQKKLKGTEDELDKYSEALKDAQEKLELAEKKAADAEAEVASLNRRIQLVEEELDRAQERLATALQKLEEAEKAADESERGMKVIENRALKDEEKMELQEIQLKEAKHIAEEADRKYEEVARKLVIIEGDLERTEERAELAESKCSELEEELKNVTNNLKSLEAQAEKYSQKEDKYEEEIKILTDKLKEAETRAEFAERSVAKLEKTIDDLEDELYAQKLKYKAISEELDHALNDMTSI
UniProt Q9BSV6: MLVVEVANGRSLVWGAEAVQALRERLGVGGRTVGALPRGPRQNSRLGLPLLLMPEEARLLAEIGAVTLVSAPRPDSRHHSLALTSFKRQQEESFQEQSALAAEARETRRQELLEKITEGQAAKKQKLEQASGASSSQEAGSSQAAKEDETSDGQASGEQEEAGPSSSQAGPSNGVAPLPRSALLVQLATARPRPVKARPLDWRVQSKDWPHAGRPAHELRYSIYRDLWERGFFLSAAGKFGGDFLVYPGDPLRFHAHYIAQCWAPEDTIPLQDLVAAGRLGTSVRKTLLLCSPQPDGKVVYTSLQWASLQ
UniProt Q15025: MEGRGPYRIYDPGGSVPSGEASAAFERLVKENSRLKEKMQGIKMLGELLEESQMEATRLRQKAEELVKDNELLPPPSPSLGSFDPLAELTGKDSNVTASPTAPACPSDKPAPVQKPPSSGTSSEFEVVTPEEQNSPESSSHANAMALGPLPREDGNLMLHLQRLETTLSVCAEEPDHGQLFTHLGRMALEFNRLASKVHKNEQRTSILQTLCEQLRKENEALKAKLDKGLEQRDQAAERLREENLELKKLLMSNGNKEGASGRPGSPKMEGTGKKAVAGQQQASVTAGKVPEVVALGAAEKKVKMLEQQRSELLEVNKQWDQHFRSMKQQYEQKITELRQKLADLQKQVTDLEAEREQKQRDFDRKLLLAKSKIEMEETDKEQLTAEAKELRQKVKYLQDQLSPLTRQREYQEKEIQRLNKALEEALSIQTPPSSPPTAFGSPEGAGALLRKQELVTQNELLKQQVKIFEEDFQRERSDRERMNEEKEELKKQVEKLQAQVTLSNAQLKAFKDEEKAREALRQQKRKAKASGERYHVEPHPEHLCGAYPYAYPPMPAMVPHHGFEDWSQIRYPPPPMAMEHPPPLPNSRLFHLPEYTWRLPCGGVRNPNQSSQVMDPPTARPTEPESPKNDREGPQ
UniProt Q12815: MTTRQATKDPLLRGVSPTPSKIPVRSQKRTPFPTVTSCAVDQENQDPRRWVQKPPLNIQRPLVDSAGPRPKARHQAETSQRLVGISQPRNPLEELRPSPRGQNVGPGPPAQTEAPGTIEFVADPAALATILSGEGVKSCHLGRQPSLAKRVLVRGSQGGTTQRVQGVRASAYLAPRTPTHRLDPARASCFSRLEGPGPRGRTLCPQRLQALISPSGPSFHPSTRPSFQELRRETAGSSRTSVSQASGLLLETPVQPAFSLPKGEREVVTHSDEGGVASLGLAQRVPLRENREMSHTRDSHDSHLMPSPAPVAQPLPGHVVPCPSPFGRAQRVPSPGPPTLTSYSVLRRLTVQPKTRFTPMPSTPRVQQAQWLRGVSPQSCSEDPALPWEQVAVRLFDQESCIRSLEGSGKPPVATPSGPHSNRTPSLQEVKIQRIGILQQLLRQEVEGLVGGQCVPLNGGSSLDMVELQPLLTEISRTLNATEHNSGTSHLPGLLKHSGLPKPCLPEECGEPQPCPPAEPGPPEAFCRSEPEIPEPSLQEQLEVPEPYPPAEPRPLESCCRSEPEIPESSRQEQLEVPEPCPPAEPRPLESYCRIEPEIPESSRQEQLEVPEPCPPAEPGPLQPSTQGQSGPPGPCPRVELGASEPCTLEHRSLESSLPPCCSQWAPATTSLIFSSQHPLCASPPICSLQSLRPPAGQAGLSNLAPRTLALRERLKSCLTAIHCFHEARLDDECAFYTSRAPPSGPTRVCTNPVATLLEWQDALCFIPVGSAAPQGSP
UniProt Q629K1: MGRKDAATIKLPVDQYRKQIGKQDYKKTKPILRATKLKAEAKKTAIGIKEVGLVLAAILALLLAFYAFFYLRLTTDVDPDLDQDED
UniProt Q96QT4: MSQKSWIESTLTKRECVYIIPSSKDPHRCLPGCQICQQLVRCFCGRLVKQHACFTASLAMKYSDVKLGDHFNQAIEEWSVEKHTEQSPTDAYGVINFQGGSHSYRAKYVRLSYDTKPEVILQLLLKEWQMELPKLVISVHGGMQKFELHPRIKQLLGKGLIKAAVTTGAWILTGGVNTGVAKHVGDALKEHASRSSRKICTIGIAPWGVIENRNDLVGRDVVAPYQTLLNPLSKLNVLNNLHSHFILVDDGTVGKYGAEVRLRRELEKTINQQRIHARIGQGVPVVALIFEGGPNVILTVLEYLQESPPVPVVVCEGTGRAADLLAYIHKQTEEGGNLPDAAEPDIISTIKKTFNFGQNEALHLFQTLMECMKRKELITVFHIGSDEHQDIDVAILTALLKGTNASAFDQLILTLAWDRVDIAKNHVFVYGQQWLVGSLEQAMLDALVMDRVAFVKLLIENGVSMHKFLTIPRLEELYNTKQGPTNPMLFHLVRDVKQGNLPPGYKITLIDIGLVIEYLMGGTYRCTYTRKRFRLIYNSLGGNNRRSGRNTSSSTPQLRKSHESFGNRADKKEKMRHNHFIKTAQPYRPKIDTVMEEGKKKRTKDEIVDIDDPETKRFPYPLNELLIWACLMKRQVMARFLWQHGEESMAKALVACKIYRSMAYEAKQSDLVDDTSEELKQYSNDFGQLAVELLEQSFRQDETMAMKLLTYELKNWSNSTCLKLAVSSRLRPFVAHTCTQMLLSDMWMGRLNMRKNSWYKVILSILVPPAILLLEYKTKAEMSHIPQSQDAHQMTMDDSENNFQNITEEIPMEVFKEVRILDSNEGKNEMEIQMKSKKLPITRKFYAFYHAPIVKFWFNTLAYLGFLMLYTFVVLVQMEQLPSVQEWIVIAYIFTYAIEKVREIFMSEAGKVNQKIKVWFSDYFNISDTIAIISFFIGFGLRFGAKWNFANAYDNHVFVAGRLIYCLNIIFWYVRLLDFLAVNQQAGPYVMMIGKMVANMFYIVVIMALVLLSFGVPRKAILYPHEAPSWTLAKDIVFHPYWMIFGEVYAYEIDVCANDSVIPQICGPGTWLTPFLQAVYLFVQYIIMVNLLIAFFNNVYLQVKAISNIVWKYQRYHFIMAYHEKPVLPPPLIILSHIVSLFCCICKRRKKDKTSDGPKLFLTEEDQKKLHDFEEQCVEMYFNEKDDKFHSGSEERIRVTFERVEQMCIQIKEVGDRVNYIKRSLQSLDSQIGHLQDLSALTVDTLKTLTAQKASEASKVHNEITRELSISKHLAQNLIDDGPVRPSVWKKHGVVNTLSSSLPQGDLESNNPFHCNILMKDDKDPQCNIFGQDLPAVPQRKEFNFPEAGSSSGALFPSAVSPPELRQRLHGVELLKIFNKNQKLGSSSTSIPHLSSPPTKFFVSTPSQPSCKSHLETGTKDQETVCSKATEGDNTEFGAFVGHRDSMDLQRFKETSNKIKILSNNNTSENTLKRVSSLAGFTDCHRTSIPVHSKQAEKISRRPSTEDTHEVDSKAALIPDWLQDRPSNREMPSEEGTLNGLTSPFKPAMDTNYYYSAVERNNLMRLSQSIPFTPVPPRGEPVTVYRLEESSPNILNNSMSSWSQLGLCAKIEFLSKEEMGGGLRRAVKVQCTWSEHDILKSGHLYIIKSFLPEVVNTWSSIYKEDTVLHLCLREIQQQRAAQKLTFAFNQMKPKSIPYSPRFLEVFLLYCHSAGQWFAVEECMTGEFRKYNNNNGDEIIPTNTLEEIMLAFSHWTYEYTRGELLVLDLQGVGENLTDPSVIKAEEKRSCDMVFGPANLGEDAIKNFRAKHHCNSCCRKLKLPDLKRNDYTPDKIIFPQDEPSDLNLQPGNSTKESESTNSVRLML
UniProt Q15628: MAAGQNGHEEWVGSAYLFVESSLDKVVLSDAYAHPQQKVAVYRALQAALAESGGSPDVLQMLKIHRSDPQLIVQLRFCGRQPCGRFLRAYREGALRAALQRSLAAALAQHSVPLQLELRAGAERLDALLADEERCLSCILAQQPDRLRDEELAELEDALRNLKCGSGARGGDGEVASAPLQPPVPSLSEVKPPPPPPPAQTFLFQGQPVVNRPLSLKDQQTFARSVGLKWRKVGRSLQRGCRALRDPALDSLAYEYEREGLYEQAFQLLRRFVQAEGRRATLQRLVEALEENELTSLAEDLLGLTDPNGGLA
UniProt Q8NDV7: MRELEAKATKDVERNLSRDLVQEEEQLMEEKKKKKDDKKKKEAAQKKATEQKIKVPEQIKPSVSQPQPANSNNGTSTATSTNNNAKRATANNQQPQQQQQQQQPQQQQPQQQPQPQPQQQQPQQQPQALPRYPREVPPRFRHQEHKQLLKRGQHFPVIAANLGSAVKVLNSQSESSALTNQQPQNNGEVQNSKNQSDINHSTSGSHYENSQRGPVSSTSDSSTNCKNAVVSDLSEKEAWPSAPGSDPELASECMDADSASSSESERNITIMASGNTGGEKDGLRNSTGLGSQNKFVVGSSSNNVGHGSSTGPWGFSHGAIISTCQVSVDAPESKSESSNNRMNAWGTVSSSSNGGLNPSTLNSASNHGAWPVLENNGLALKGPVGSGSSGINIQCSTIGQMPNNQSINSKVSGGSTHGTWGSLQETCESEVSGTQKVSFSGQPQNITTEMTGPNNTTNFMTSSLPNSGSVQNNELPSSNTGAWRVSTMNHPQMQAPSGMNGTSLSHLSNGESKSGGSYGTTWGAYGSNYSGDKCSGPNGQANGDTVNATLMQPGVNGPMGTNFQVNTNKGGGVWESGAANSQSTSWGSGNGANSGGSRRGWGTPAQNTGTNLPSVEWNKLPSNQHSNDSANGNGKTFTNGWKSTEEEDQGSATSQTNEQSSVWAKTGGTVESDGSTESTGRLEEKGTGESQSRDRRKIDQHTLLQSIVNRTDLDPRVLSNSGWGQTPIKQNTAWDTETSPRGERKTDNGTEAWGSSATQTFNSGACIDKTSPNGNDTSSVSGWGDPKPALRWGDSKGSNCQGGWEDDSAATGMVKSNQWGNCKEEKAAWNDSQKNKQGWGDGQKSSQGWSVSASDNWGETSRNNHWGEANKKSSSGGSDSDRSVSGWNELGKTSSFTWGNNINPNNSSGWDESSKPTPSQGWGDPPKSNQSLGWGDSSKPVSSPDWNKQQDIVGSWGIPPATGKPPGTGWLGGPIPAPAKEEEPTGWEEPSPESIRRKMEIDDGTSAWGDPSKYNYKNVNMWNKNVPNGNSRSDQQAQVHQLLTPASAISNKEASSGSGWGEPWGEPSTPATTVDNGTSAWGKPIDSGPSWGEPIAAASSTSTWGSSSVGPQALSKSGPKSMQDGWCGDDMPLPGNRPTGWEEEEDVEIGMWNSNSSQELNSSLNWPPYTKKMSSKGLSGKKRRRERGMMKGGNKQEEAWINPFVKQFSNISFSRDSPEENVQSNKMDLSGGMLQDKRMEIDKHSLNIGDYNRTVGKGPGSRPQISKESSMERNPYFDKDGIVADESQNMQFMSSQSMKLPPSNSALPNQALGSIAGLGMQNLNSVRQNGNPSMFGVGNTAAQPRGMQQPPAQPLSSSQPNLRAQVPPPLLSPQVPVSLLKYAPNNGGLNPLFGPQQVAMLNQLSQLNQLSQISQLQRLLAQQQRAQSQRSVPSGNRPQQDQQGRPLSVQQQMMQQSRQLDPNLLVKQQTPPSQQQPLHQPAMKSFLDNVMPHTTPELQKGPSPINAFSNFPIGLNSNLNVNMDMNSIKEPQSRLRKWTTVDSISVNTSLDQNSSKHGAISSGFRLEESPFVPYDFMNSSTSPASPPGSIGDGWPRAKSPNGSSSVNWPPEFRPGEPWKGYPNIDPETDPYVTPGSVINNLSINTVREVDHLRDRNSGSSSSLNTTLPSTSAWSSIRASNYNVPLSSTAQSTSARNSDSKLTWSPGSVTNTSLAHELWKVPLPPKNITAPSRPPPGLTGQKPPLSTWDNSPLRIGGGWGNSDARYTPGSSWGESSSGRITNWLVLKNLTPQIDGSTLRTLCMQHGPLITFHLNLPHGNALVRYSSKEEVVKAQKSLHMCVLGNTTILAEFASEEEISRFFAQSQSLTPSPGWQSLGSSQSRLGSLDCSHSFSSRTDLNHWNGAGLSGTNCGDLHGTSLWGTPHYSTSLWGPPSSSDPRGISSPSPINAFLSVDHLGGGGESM
UniProt Q9BW30: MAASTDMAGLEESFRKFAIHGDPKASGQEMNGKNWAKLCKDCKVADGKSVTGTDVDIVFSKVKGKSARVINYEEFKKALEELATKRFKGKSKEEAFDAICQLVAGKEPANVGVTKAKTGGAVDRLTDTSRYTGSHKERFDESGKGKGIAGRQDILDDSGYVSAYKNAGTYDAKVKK

How the values were obtained:
Test in all cases: log2 fold change, soluble protein after heating vs DMSO (PISA); higher = thermal stabilisation; K562 cells, 10 uM, 30 min; active = over 0.2 and 3.5 SD of the protein, either way, in both replicates (recomputed)
[1] = compound: NC(=O)Nc1cc(-c2cccc(F)c2)sc1C(=O)N[C@H]1CCCNC1
Outline: (§1)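 For each measurement, 10 μM compound was applied for 30 min to K562 cells at 2×10^6 cells/mL. Aliquots were heated for 3 min across 48°C-58°C, pooled, and extracted in PBS with 0.5% NP-40 at 4°C; the supernatant after 21,000xg for 90 min was soluble protein. This was quantified by TMTpro 16plex LC-MS/MS with channel sums equalised, and thermal stability was reported relative to control samples from duplicates, on a log2 fold-change scale.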

[2] = compound: NC(=O)c1cnc(N[C@@H]2CCCC[C@@H]2N)nc1Nc1cccc(-n2nccn2)c1
Outline: as §1

[3] = compound: NC1(c2ccc(-c3nc4ccn5c(=O)[nH]nc5c4cc3-c3ccccc3)cc2)CCC1
Outline: as §1

[4] = compound: NCC(=O)Nc1ccc(-n2nc(C(F)(F)F)cc2-c2ccc3c(ccc4ccccc43)c2)cc1
Outline: as §1

entinostat = compound: Nc1ccccc1NC(=O)c1ccc(CNC(=O)OCc2cccnc2)cc1 [entinostat]
Outline: as §1

vorinostat = compound: O=C(CCCCCCC(=O)Nc1ccccc1)NO [vorinostat]
Outline: as §1

citarinostat = compound: O=C(CCCCCCNC(=O)c1cnc(N(c2ccccc2)c2ccccc2Cl)nc1)NO [citarinostat]
Outline: as §1

silmitasertib = compound: O=C(O)c1ccc2c(c1)nc(Nc1cccc(Cl)c1)c1ccncc12 [silmitasertib]
Outline: as §1

[5] = compound: c1cc(OCCN2CCCCC2)cc(-c2n[nH]c3ccc(-c4nnc[nH]4)cc23)c1
Outline: as §1

[6] = compound: O=C1NC(=O)C(c2cnc3ccccn23)=C1c1cn2c3c(cc(F)cc13)CN(C(=O)N1CCCCC1)CC2
Outline: as §1

Measured: log2 fold change

TRAPPC1 (UniProt Q9Y5R8)
inactive: [1] -0.049 | [2] 0.006 | [3] -0.159 | [4] -0.027 | entinostat 0.007 | vorinostat 0.058 | citarinostat 0.001 | silmitasertib 0.031 | [5] -0.018

TPCN1 isoform 3 (UniProt Q9ULQ1)
inactive: [1] 0.059 | [2] -0.016 | [3] -0.261 | [4] 0.066 | entinostat -0.382 | vorinostat 0.265 | silmitasertib 0.054 | [6] -0.031

TPM3 isoform 2 (UniProt P06753)
inactive: [1] -0.024 | [2] 0.031 | [3] -0.004 | [4] 0.046 | entinostat 0.016 | vorinostat -0.079 | citarinostat -0.054 | silmitasertib -0.011 | [6] -0.005 | [5] 0.046

TSEN34 (UniProt Q9BSV6)
inactive: [1] 0.004 | [2] 0.11 | [3] -0.183 | [4] -0.057 | entinostat 0.04 | citarinostat 0.01 | silmitasertib 0.042 | [6] -0.114 | [5] 0.036

TPP2 (UniProt Q5VZU9)
inactive: [1] 0.033 | [2] 0.306 | [3] 0.188 | [4] 0.118 | entinostat -0.074 | citarinostat -0.08 | silmitasertib 0.07 | [6] 0.269 | [5] -0.274

TRIM5 (UniProt Q9C035)
inactive: [1] -0.219 | [2] -0.085 | [4] -0.006 | entinostat 0.137 | [6] 0.024

TRMT112 (UniProt Q9UI30)
inactive: [1] -0.036 | [2] -0.026 | [3] -0.008 | [4] 0.014 | entinostat -0.053 | vorinostat -0.108 | citarinostat 0.019 | silmitasertib -0.023 | [6] -0.108 | [5] -0.013

TRAM2 (UniProt Q15035)
inactive: [1] -0.162 | [2] 0.031 | [4] -0.159 | entinostat -0.059 | citarinostat 0.042 | [5] -0.158

TRAPPC5 (UniProt Q8IUR0)
inactive: [1] 0.027 | [2] -0.071 | [3] -0.08 | [4] -0.025 | entinostat -0.004 | vorinostat 0.062 | citarinostat 0.032 | silmitasertib 0.027 | [6] 0.059 | [5] -0.097

TRIM44 (UniProt Q96DX7)
inactive: [1] 0 | [2] -0.037 | [3] -0.048 | [4] 0.02 | entinostat -0.048 | vorinostat 0.015 | citarinostat 0.008 | silmitasertib 0.045 | [5] -0.083

TRIM23 (UniProt P36406)
inactive: [1] -0.025 | [3] -0.02 | [4] -0.083 | entinostat -0.01 | vorinostat 0.06 | citarinostat 0.015 | silmitasertib -0.044 | [5] -0.026

TPRA1 (UniProt Q86W33)
inactive: [1] 0.03 | [2] -0.136 | [3] -0.016 | [4] 0.013 | entinostat 0.127 | vorinostat -0.224 | silmitasertib 0.055 | [6] -0.026

TP53I3 (UniProt Q53FA7)
inactive: [1] -0.005 | [2] -0.015 | [3] 0.004 | [4] -0.063 | entinostat -0.02 | vorinostat -0.02 | citarinostat 0.015 | silmitasertib 0.014 | [6] -0.017 | [5] 0.015

TNIP1 (UniProt Q15025)
inactive: [1] -0.006 | [3] 0.251 | entinostat 0.022 | citarinostat 0.067 | silmitasertib -0.343 | [6] 0.052 | [5] 0.201

TRMT5 (UniProt Q32P41)
inactive: [2] -0.13 | [4] -0.001 | vorinostat 0.019 | citarinostat 0.106 | [6] 0.03 | [5] -0.195

TNKS (UniProt O95271)
inactive: [2] -0.205

TRUB2 (UniProt O95900)
inactive: [1] -0.255 | entinostat -0.103 | vorinostat 0.053 | [6] -0.282

TRMT2B (UniProt Q96GJ1)
inactive: [2] -0.282 | [3] -0.146 | [4] 0.007 | vorinostat 0.01 | citarinostat 0.068 | silmitasertib 0.084 | [5] -0.05

TROAP (UniProt Q12815)
inactive: vorinostat 0.05 | [6] 0.021

TRIQK (UniProt Q629K1)
inactive: [1] 0.013 | [3] -0.044 | entinostat -0.083 | silmitasertib 0 | [6] -0.235

TRIM29 (UniProt Q14134)
inactive: [3] -0.181 | citarinostat -0.113 | silmitasertib 0.09 | [5] -0.031

TRIT1 (UniProt Q9H3H1)
inactive: citarinostat -0.214 | [5] 0.097

TNIK isoform 3 (UniProt Q9UKE5)
inactive: [2] 0.006 | [3] 0.058 | [4] -0.006 | vorinostat 0.055 | citarinostat 0.029 | silmitasertib -0.091 | [5] -0.03

TRIM33 isoform 2 (UniProt Q9UPN9)
inactive: [1] -0.046 | [3] -0.048 | entinostat 0.018 | silmitasertib -0.149 | [6] 0.013

TOR1AIP2 (UniProt Q9H496)
inactive: [3] 0.048 | citarinostat 0.079 | silmitasertib 0.02 | [6] -0.319 | [5] -0.067

TRPM4 (UniProt Q8TD43)
inactive: [1] -0.081 | entinostat 0.014 | [6] 0.079

TRIM41 (UniProt Q8WV44)
inactive: [4] 0.143

TRIM65 (UniProt Q6PJ69)
inactive: [4] 0.032 | citarinostat 0.024 | [5] -0.068

TRPM7 (UniProt Q96QT4)
inactive: [2] -0.145 | [3] -0.015 | [4] 0.051 | vorinostat 0.073 | citarinostat 0.061 | silmitasertib 0.073 | [6] 0.095 | [5] -0.187

Nine consecutive records already listed:
TRIQK (UniProt Q629K1)
inactive: [1] 0.013 | [3] -0.044 | entinostat -0.083 | silmitasertib 0 | [6] -0.235

TRIM29 (UniProt Q14134)
inactive: [3] -0.181 | citarinostat -0.113 | silmitasertib 0.09 | [5] -0.031

TRIT1 (UniProt Q9H3H1)
inactive: citarinostat -0.214 | [5] 0.097

TNIK isoform 3 (UniProt Q9UKE5)
inactive: [2] 0.006 | [3] 0.058 | [4] -0.006 | vorinostat 0.055 | citarinostat 0.029 | silmitasertib -0.091 | [5] -0.03

TRIM33 isoform 2 (UniProt Q9UPN9)
inactive: [1] -0.046 | [3] -0.048 | entinostat 0.018 | silmitasertib -0.149 | [6] 0.013

TOR1AIP2 (UniProt Q9H496)
inactive: [3] 0.048 | citarinostat 0.079 | silmitasertib 0.02 | [6] -0.319 | [5] -0.067

TRPM4 (UniProt Q8TD43)
inactive: [1] -0.081 | entinostat 0.014 | [6] 0.079

TRIM41 (UniProt Q8WV44)
inactive: [4] 0.143

TRIM65 (UniProt Q6PJ69)
inactive: [4] 0.032 | citarinostat 0.024 | [5] -0.068

The results go on.

TRADD (UniProt Q15628)
inactive: [2] -0.073 | [3] -0.094 | [4] -0.049 | silmitasertib -0.034 | [6] 0.025

TRAPPC6A isoform 2 (UniProt O75865)
inactive: [3] -0.181 | citarinostat 0.041 | silmitasertib -0.165 | [5] -0.03

TNRC6A (UniProt Q8NDV7)
inactive: [3] 0.137 | silmitasertib -0.007

TRIP12 isoform 3 (UniProt Q14669)
inactive: [3] 0.022 | [4] -0.14 | vorinostat 0.158 | citarinostat -0.076 | silmitasertib 0.044 | [6] 0.076 | [5] 0.077

TRAF3IP1 (UniProt Q8TDR0)
inactive: [2] -0.07 | [4] -0.046

TPPP3 (UniProt Q9BW30)
inactive: [1] 0.094 | entinostat -0.144 | [6] -0.208

TRIM21 (UniProt P19474)
inactive: [2] -0.096 | [3] -0.316 | silmitasertib -0.026

TSC1 (UniProt Q92574)
inactive: [2] -0.04 | [4] -0.12 | citarinostat 0.212 | [5] 0.039
